In the test the target is T1, murine T-cadherin (full-length), over-expressed on cells (murine) (UniProt Q9WTR5).
T1 sequence (chain, GPI anchor at the C-terminus (said of T-cadherin in general in the background)): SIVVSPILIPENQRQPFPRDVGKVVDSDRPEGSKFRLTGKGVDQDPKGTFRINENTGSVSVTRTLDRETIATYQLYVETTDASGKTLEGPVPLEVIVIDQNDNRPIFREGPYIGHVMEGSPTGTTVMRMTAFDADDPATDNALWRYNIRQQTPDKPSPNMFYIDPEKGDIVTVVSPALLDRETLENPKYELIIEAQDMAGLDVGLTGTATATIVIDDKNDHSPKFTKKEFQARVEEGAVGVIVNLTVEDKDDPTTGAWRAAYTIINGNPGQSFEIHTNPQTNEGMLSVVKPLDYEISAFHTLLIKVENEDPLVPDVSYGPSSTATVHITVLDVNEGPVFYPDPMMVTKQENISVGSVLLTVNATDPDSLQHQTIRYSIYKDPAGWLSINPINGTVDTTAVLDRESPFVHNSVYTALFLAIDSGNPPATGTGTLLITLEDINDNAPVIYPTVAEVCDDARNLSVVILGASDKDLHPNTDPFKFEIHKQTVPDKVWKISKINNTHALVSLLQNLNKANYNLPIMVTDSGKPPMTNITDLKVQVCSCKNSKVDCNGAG
The test can be described thus: FACS competition on Ba/F3 cells expressing T-cadherin against 6 nM 5'Flag-Acrp30 hexamer.

These are yes or no findings as the source states them, for the method shown. Binding calls can cover weak binding; strength is not graded here.

In the case of “eukaryotic produced, untagged Acrp30 hexamer (ligand)”, the binding entry was “binds”.

The values above are taken from patent publication US20070212686A1 (WHITEHEAD INSTITUTE FOR BIOMEDICAL RESEARCH, published 2007).
